Results taken from PubChem BioAssay AID504834 (National Center for Advancing Translational Sciences (NCATS), 2011).
The campaign covered roughly 320,000 compounds. About 22,000 (6.9%) were called active. This list was built around the results that the source calls inconclusive (neither active nor inactive); the mix of calls is not that of the screen. Calls come from the whole dose curve; as a rule, active = well fitted inhibition curve with a large enough effect; inconclusive = small, poorly fitted or top-dose-only effect, or another doubt; inactive = no such curve, though single readings can be large or run the other way. A potency beside an inconclusive call is a rough fit, not a confirmed value.

experiment: Primary qHTS for delayed death inhibitors of the malarial parasite plastid, 96 hour incubation; conditions: P. falciparum luciferase reporter growth; series mostly up to 28.7 µM; activity change, negative = inhibition: at the top concentration
Outline: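 P. falciparum expressing integrated firefly luciferase, in erythrocytes at 2% hematocrit, 0.05% parasitemia, incubated with compounds 96 h at 37 C, 5% CO2. Growth inhibition read as loss of luminescence; two-generation exposure targets delayed-death apicoplast inhibitors.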
% is set by controls: 0 for no effect and ±100 for the full control effect; potency is the fitted concentration of half-maximal effect.

Q: For `CCN(C(=O)COC(=O)c1ccc2ccccc2c1)c1c(N)n(Cc2ccccc2)c(=O)[nH]c1=O`, which Potency is on record?
A: inconclusive: 18.5 µM [inhibitor, single point]

Q: With `Cc1cc(=O)[nH]n(CCO)c1=O` as the compound, how does the “activity change, negative = inhibition” value read?
A: inactive: 49.7%

Q: With `O=C(c1cccc(-c2ccc(O)cc2)c1)N1CCOCC1` as the compound, how does the “activity change, negative = inhibition” value read?
A: inactive: 115%

Q: Which Potency does the source give for `CCn1c(=O)c(CCC(=O)N2CCN(c3ccccn3)CC2)c(C)c2c(C)nn(-c3ccccc3)c21` here?
A: inconclusive: 10.4 µM [inhibitor, single point]

Q: For `CCCNC(=O)N(CCOC)CC1CCCN(C2Cc3ccccc3C2)C1` (centres undefined), which Potency is on record?
A: inconclusive: 11.7 µM [inhibitor, partial curve, poor fit]

Q: Which Potency does the source give for `Cc1cccc(CNC(=O)C(C)n2nc(C)c3c(C)n(-c4ccccc4)nc3c2=O)c1` (centres undefined) here?
A: active: 10.4 µM

Q: For `Cc1cc(/C([O-])=C(/C(=S)Nc2ccccc2)[n+]2ccccc2)c(C)n1-c1ccccc1`, which Potency is on record?
A: inconclusive: 18.5 µM [inhibitor, single point]

Q: Which Potency does the source give for `Cc1ccc(NC(=O)N2CCN(c3ncccc3C(F)(F)F)CC2)cc1` here?
A: active: 13.1 µM

Q: Which “activity change, negative = inhibition” value does the source give for `COC(=O)CN1C(=O)[C@H]2[C@@H](c3ccc(C)o3)N3C(=O)CN(CC4CC4)C(=O)[C@@]3(Cc3ccccc3)[C@H]2C1=O` here?
A: inactive: 50.3%

Q: For `O=C(CCC(=O)OCC(=O)c1cccc([N+](=O)[O-])c1)Nc1ccccc1Cl`, which “activity change, negative = inhibition” value is on record?
A: inactive: -11.4%

Q: For `CCc1c(C)c2ccc(OCC(=O)NCC3CCC(C(=O)O)CC3)c(C)c2oc1=O` (centres undefined), which Potency is on record?
A: inconclusive: 8.28 µM [inhibitor, partial curve]

Q: With `O=C(NCC1CCCN(C(=O)c2cccc(C(F)(F)F)c2)C1)c1ccc(F)cc1` (centres undefined) as the compound, how does the Potency read?
A: inconclusive: 14.7 µM [inhibitor, single point]

Q: With `Clc1ccc(C(c2ccc(Cl)cc2)C(Cl)(Cl)Cl)cc1` as the compound, how does the Potency read?
A: inconclusive: 13.5 µM [inhibitor, single point]

Q: With `COc1ccc(CCNCC(=O)Nc2ccc(C)c(S(=O)(=O)N(C)C)c2)cc1` as the compound, how does the Potency read?
A: inconclusive: 18.5 µM [inhibitor, partial curve, poor fit]

Q: With `COc1ncc(-c2ccc3c(c2)S(=O)(=O)c2cccc(C(=O)O)c2C3=O)cn1` as the compound, how does the “activity change, negative = inhibition” value read?
A: inactive: 39.4%

Q: With `COc1ccc(CCNC(C)CCc2ccc(OC)cc2)cc1` (centres undefined) as the compound, how does the Potency read?
A: inconclusive: 10.4 µM [inhibitor, single point]

Q: With `O=C(CSc1ccccc1F)NCC1(N2CCCCC2)CCCCC1` as the compound, how does the Potency read?
A: inconclusive: 18.5 µM [inhibitor, single point]

Q: Which “activity change, negative = inhibition” value does the source give for `O=C(Nc1ccccc1C(=O)NCc1cccnc1)c1ccco1` here?
A: inactive: -7.26%

Q: For `CC(C)OCCCNC(=O)C1CCC(CNS(=O)(=O)c2ccc(Cl)cc2)CC1` (centres undefined), which Potency is on record?
A: inconclusive: 5.86 µM [inhibitor, partial curve, poor fit]
